Drawing on PubChem BioAssay AID1508600 (Functional Genomics Laboratory (NCATS/FGL), 2020), this text covers z-score for 107 sequences.

The whole screen tested about 53,000 sequences, of which about 3,700 (7%) were called active.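 The calls were made as follows: active = gene knockdowns whose robust z-score for IL-1 alpha signal is at least 2 or at most -2, so actives lie on both sides; inactive = the rest.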 The list shows a part of the results.

The nature of this experiment: Components of the Cytosolic LPS Sensing Pathway: Gene Identification via Genome-wide siRNA Screen.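 Also: robust z of the log signal after scaling to non-targeting control siRNA wells of the plate.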 The note with it: RAW264.7 macrophages, IL-1a HTRF, actives lie on both sides, screened at 100 nM (by protocol), cells primed 5 h with Pam3CSK4 first. In a few lines: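 Read-out: IL-1a HTRF on supernatant, divided by plate negative-control median ×100, log-transformed and converted to robust z-score. Cells were RAW264.7 given 100 nM siRNA, Pam3CSK4-primed 5 hours, then LipidA-transfected 24 hour.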
For the sequence GGCUCCAUAUGGAAUGCAGTT against Ets2, the z-score was inactive: 0.571.

In the case of GCUAUUGCCUUAGAUCCAUTT against Lrp6, the z-score is inactive: 0.384.

Turning to GGAAGAUGAGAAAAUUCCATT against Ccni, the z-score was inactive: -0.44.

Turning to GGACACUAUCCGUGCAUCUTT against Tsg101, the z-score was inactive: -1.13.

For CGAAUAUGCAGGAUGGUAGTT against Dnaaf2, the z-score was inactive: 0.36.

On to GGUGCAGAAGAUGUGGAUGTT against Cldn1, for which the z-score is inactive: 0.148.

GGGAUAGGGUUCAAUUAGGTT against Bcl2l13: the z-score is inactive: 0.231.

Take CGGCCUGUUAAAUACGCUGTT against Slc39a4: the z-score is inactive: -0.463.

Take GACAAUACCAUCUCCCACUTT against Olfr347: the z-score is inactive: -0.389.

Regarding “GGUUUGAAUGAAUUCAAGGTT against 6030452D12Rik”, the z-score is inactive: 0.785.

As to GGGACAAGUUUCUUAACUGTT against F9, the z-score is inactive: 0.865.

For the sequence GCAUGUAUGUGUCGAUAAUTT against Slc33a1, the z-score was inactive: -0.468.

On to GGACAUCUUCUCCGAUAUCTT against Tgfbr2, for which the z-score was inactive: -1.94.

As for GGACAUAGUCUGAGGCAAGTT against Ost4, the z-score is inactive: -1.34.

In the case of GGUUAUAGAAUGCUUGAUUTT against Rttn, the z-score is inactive: 0.511.

With “GGAAAAAGAAGUCCACACATT against 1700016D06Rik”, the z-score was inactive: -1.18.

For the sequence GGUUCAAAACCAAGAGUGUTT against Ahi1, the z-score is inactive: -0.453.

GGAGUGGAGUGAUUUCAGATT against Pdcd6: the z-score was inactive: -0.535.

Consider GGAACCGCUGAUGCUUAAGTT against Ctsl, for which the z-score was inactive: -0.726.

On to GGAUGUUCUUGAAGAAUUCTT against Dgkb, for which the z-score is inactive: 1.04.

Regarding GGGUAAAUCUACAAGAAGUTT against Snx25, the z-score was inactive: 0.182.

For the sequence GGAAGUGUCUUUAAACUUCTT against Slc25a31, the z-score was inactive: 0.912.

As for GGAUUUGAGCAACUACAGUTT against Eya3, the z-score was inactive: 0.482.

Consider CCUACACAUCCUUAAAGUGTT against Btnl9, for which the z-score is inactive: 0.568.

Turning to GGAGGUUUUGAUGGACUGUTT against Ccdc25, the z-score is inactive: -0.362.

In the case of “GCAUUCUAUCUUGUCUGGATT against 5730522E02Rik”, the z-score is inactive: -0.16.

For GAUUUUGUUUAUGGCCCAGTT against Olfr1261, the z-score was inactive: 0.428.

For AUCUCUCCUGUUCUAACACTT against Olfr26, the z-score is inactive: -0.242.

With GGAGUCAGAAUGUAUAAAUTT against Zfp12, the z-score was inactive: -1.08.

With GGGCCUAUGCAAUGAAACCTT against Tshr, the z-score is inactive: -1.66.

Take GCAUUAAUUGCUUCUCUUATT against Nup155: the z-score is active: -2.35.

Take GUUCUUAGAGCAGAAGUACTT against Zar1: the z-score was inactive: -0.671.

For the sequence CCUACCAACUUUACAAGAUTT against Tlr3, the z-score is inactive: 0.537.

For the sequence CGAGCUUCGGAGGAAGUGATT against Zc3hav1l, the z-score is inactive: -0.743.

In the case of GAUGAAGAAGAGCAGGCUCTT against Gm5168, the z-score was inactive: 1.18.

As to GCUAUUUUUAUAAGGGCCATT against Sh2b2, the z-score was active: 2.94.

Take GGGAAUUGGGUGUAUACAATT against Hmgcl: the z-score is inactive: -0.138.

GGUUAGAGAUUGUUCUGUUTT against Olfr267: the z-score is active: 2.02.

As for GGUCUUCAAAAGCAAUAAATT against Mcm3ap, the z-score is inactive: -1.51.

On to GGUUUCAGAAUGGAGUUACTT against Saa2, for which the z-score is inactive: -0.576.

On to CCAGAGCAACUGUUGCUAATT against Itgb2l, for which the z-score is inactive: -0.0779.

For GCGAAAUCAACAGUCAAUUTT against Ep300, the z-score was inactive: 0.458.

Turning to CCUGUAAUGGGAAAUGGCCTT against Adgra1, the z-score is inactive: -0.7.

Consider GGGAAAUCAUCUUCUAUAATT against Pde6c, for which the z-score was inactive: 0.142.

Take CCUAAUGAUGGCUCUUACUTT against Adgrl4: the z-score is inactive: -0.0693.

As to CCACUAUAGUCCUUAGUGUTT against Ugt2b5, the z-score was inactive: -0.875.

For the sequence GGAACAUUCUCGACUUCCCTT against Thop1, the z-score was inactive: -0.249.

In the case of CCUGUGGAUUACGGCCUCATT against Ube3b, the z-score is inactive: -0.282.

For the sequence GGAGAAGUUGAAGUCCUUCTT against Msr1, the z-score is inactive: -0.229.

As for CCUGGUCUUACACCUGUCATT against Spire1, the z-score was inactive: -0.0546.

GCAAAAGACGAGUGAGCCUTT against Hoxa9: the z-score is inactive: -1.55.

On to GCUCCGUGUUGUCCUAAUGTT against Fndc7, for which the z-score is inactive: 0.474.

Turning to CCAGUUAUCUAUCUAGUGUTT against Sash1, the z-score was inactive: 1.2.

For the sequence GGCCGUUCUGUUGACCUUATT against Ovch2, the z-score is inactive: 1.53.

As for GGAUGAACUCCAGAACAUCTT against Gmfg, the z-score was inactive: 0.558.

GGAUAACUUGCCAAAGUCUTT against Alas1: the z-score was inactive: 0.856.

GGGUAGAUAGAUGUUCAGGTT against BB014433: the z-score is inactive: 0.398.

In the case of GCGUGGUUACGCUAUGAUCTT against Tmem121, the z-score was inactive: 0.213.

Regarding GGUUUUCUUCUUCAUAGCUTT against Olfr125, the z-score is inactive: 0.976.

As to GCAAAUAAGAUUGCGUCUGTT against Cpa2, the z-score was active: 2.89.

In the case of GGAUGACGAAGCCUAUGAUTT against Nacc2, the z-score was inactive: -1.16.

Take GGUGAGAACUUAAUCUUGGTT against Tax1bp3: the z-score is inactive: 0.448.

For GGCAUUGUCCUACAUGAGCTT against Astl, the z-score is inactive: 0.154.

GGCAUCUGAGUGAUAUAAATT against Dcps: the z-score is inactive: 0.109.

On to GCAUCACUUACAGAUAGACTT against Olfr305, for which the z-score is inactive: -1.21.

As for CCUCUAUUCUCCGUCUAUGTT against Fars2, the z-score was active: 2.45.

As for GGCAUUCGAAGGGACAGAUTT against Arg2, the z-score is active: -2.06.

As to CCAAGGUGGGUUACAGUGUTT against Zc3h3, the z-score was inactive: -0.216.

GGAGAUGACGUGAAAACAATT against Srf: the z-score is inactive: -1.13.

For GGUAAAUAGUGACCAUGAATT against Pus7, the z-score is inactive: 1.49.

On to GGUGUCUAUCUUCAACCCATT against Olfr132, for which the z-score was inactive: 0.253.

As to GGAUCUGGUCUUAACUUAATT against Chtf8, the z-score was inactive: -1.46.

CCAUUUUAGCCAUCUGGUATT against Slc5a4b: the z-score was inactive: 0.411.

With GGAUGUGUCAGGAAAAUAGTT against Ctsm, the z-score is inactive: -0.176.

Turning to GGGACCCAAGGAUAUGAAUTT against Rbsn, the z-score was inactive: 0.6.

Consider CGACCACACCCAAAACACUTT against Ints6, for which the z-score was inactive: -0.553.

For the sequence GAUCUCAAACAUUCUAUGCTT against Lce1c, the z-score was inactive: -1.14.

In the case of GGAGUUUCACCAGAAGGCUTT against Ttc24, the z-score is inactive: 1.63.

GGGUAUGGGAGAAUGAUUATT against Elovl3: the z-score is inactive: 0.522.

As for CCCAUACUAAAAUUGUUGATT against Adam29, the z-score is inactive: 0.253.

Consider GGAAACCUACUGUUGCACUTT against Wdr59, for which the z-score is inactive: -0.627.

Take GCUGAAUGAGAUCUUGAAATT against Hand2: the z-score is inactive: 0.498.

In the case of GGUUGGAAAUUGGACAGGATT against Col6a3, the z-score is active: 2.22.

Regarding GGCCUUGGGAAAUUACAGGTT against Wnt6, the z-score is inactive: 0.586.

Turning to GGGCUCUAACAUCUUAUACTT against Tbc1d31, the z-score is inactive: 1.54.

In the case of GGGAUGCAUUACUUACACATT against Map3k20, the z-score was inactive: 1.11.

Turning to GAGGGAAAUACAUUCUAACTT against Nms, the z-score is inactive: -1.22.

On to GCAUCCCGACUACAAGUACTT against Sox21, for which the z-score is active: -2.06.

Consider GCUCUGACCAUCCUUAGCUTT against Olfr938, for which the z-score was active: -2.62.

As to GCUUAAAGCUAACCUAAUGTT against Dyrk3, the z-score is inactive: 1.36.

As to GACAAAACUCAUUGUUCUUTT against Taf11, the z-score is inactive: 1.16.

For the sequence CCGAAUUGAAAUCACAAGCTT against Nup43, the z-score is inactive: -1.31.

On to GGACUCAAGCUAGAACACATT against Col16a1, for which the z-score is inactive: 1.19.

For CCAGACACGCAUUGCGAAATT against H2-M2, the z-score was inactive: 0.357.

On to GGGAAAAGUGACUAGGCUUTT against Ngb, for which the z-score is inactive: -0.331.

For GCUGUCUGUGGUUAUUGGGTT against Rhbdd3, the z-score is inactive: -1.52.

For the sequence GGUUACUAAGUGAAGUAAATT against Actr1b, the z-score is inactive: -1.28.

Turning to CGGUAUUUCAUCCUGGAUATT against Plekha1, the z-score is inactive: 0.403.

For the sequence GGAAAAAAAAAAGGACGAGTT against Smap1, the z-score is inactive: -0.374.

Regarding CCUAUUAUGUCAACAUUGATT against Il6st, the z-score is inactive: 1.28.

GGUUGGCUGGAAUUUGACATT against Bmp6: the z-score is inactive: 0.186.

As for GGGAGAAACCUGUGCAAAUTT against Serpinb6c, the z-score was inactive: 0.459.

Regarding GCAACAAUAUGAAUAAUGGTT against Robo1, the z-score is inactive: -0.168.

For GUACCUCAGAGCUCUGCAUTT against Helt, the z-score is inactive: -0.292.

Turning to GGGAAAUGCACUUAAAUGATT against Tox3, the z-score was inactive: -0.337.

Regarding CGCGGUCAUCUUUGUCUUCTT against Agap1, the z-score is inactive: 0.81.

Regarding CCAUGUCCAAUGAGGACUUTT against Htr1b, the z-score is inactive: 0.111.
